# From PubChem BioAssay (EPA / NIEHS)
# By UniProt entry, the sequences of proteins in these tests, tags left out.
# UniProt P04637, whole entry, looked up: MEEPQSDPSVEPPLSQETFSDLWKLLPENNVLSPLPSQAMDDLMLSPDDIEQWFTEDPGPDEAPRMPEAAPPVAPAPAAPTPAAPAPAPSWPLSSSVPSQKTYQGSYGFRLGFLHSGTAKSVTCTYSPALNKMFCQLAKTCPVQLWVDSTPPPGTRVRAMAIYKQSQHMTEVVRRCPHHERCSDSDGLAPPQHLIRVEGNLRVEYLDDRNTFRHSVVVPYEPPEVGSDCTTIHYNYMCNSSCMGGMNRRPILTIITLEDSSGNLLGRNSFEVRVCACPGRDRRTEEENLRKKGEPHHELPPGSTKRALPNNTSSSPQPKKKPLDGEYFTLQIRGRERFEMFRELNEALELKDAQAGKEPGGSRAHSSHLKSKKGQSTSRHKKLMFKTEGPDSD
# Several values for one entry are separate records, joined by “and”; a condition that tells them apart may be missing. Equal entries are not always repeated. The inconclusive results got no clear call from the source; some entries with a clear call stand among them for comparison. Potencies beside an inconclusive call are fits to weak or partial responses and may not hold up. Activity calls are given as the source filed them. Rule for the calls: active = hit-call score of the fitted dose curve at least 0.9, where 1 is the maximum; inconclusive = response in the unintended direction; inactive = score below 0.9.
# Target: Cellular tumor antigen p53 (Homo sapiens) (UniProt P04637)
# Experiment: TOX21_p53_BLA_p3_ratio: Tox21 HCT-116 p53 Agonism Beta-lactamase Assay, Ratio, Phase 3 (AID 2283596)
# Summary of the method: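 Cells were seeded at 4000/well, rested 5 h at 37C, then dosed with DMSO compound solutions (217-fold dilution) for 16 h. CCF4-AM substrate was loaded for 2 h at room temperature, and the 460/530 nm emission ratio was fitted for gain of signal versus DMSO.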
SMILES,AC50,outcome
CCOC(=O)O[C@]1(C(=O)COC(=O)CC)CC[C@H]2[C@@H]3CCC4=CC(=O)C=C[C@]4(C)[C@H]3[C@@H](O)C[C@@]21C,inconclusive: 19.6 µM,
CCCC(C)C,,inactive
FC(F)(F)c1ccccc1,inconclusive: 45.1 µM,
CC(=O)OC(C)OC(C)=O,inconclusive: 47.3 µM,
CC(=O)Nc1ccc(OC(C)=O)cc1,inconclusive: 23 µM,
CN1CCCCC1CCN1c2ccccc2Sc2ccc(S(C)=O)cc21 (stereo not given),inconclusive: 23 µM,
O=S(=O)(O)CCS,inconclusive: 77.2 µM and inconclusive: 23 µM,
O=C(O)c1cc(=O)c2ccccc2o1,inconclusive: 43.6 µM,
O=S(O)CO,inconclusive: 45.9 µM,
C=C(C)CC(C)(C)C,inconclusive: 44.9 µM and inconclusive: 46 µM,
CC(=C(CCOC(=O)C(C)C)SSC(CCOC(=O)C(C)C)=C(C)N(C=O)Cc1cnc(C)nc1N)N(C=O)Cc1cnc(C)nc1N,,inactive
COc1ccc2cc([C@H](C)CO)ccc2c1,inconclusive: 42.9 µM,
CCOC(=O)C1=C(C)NC(C)=C(C(=O)OCC)C1c1ccccc1/C=C/C(=O)OC(C)(C)C,active: 39.5 µM,
CNC(=O)CN(CCN(CCN(CC(=O)[O-])CC(=O)NC)CC(=O)[O-])CC(=O)[O-].O.[Gd+3],inconclusive: 23 µM,
CC1=C(/C=C/C(C)=C/C=C/C(C)=C/C=C/C=C(C)/C=C/C=C(C)/C=C/C2=C(C)C(=O)CCC2(C)C)C(C)(C)CCC1=O,,inactive

# An excerpt of these results, with bars between the fields.
SMILES | AC50 | outcome
CC(=O)Nc1ccc(OC(C)=O)cc1 | inconclusive: 23 µM | 
O=S(=O)(O)CCS | inconclusive: 77.2 µM and inconclusive: 23 µM | 
